Data as given in PubChem BioAssay AID1259308 (NCATS, 2017).

Assay: 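Knock-downs that increase output of a recombinant reporter protein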 (primary screen)
Cells: human HEK293 embryonic kidney cells stably expressing firefly luciferase (HEK-CMV-Luc2-Hygro)
Reagent: single siRNA against human genes, 0.8 pmol siRNA per well
Duration: 72 h
Detection: 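Reporter luminescence and viable-cell signal on separate replicate plates, given as percent of non-targeting control and median/MAD z-scores, plus per-cell luciferase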
Reading the numbers: total luciferase, z-score and total luciferase, % of control: higher = more reporter protein produced; luciferase per cell, z-score: higher = more reporter output per viable cell; viable cells, % of control: higher = more viable cells
Active means: 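Active when the median/MAD z-score for overall luciferase is greater than 3; a gene was taken forward for validation with new siRNAs if at least two of its three siRNAs passed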
Meaning of the calls: active = raised luciferase; inactive = no rise
The deposit covers about 59,000 reagents; this is a random part of them. About 1,510 of them (2.6%) were called active. 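Calls use total luciferase alone and ignore viability, so some active siRNAs may act by altering cell number.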 The numbers tell different reagents against one gene apart.

Gene | siRNA no. | total luciferase, z-score | total luciferase, % of control | luciferase per cell, z-score | viable cells, % of control | Call
DCST1 (DC-STAMP domain containing 1) | 1 | 0.44 | 90.6 | 0.549 | 87.6 | inactive
DCST1 (DC-STAMP domain containing 1) | 2 | -0.728 | 67.4 | -0.184 | 79.1 | inactive
DCST1 (DC-STAMP domain containing 1) | 3 | 0.179 | 85.4 | -0.0464 | 96.7 | inactive
ARGLU1 (arginine and glutamate rich 1) | 1 | 1.94 | 120 | 1.49 | 90.8 | inactive
ARGLU1 (arginine and glutamate rich 1) | 2 | -1.44 | 53.2 | -0.95 | 76.4 | inactive
ARGLU1 (arginine and glutamate rich 1) | 3 | 1.9 | 120 | 4.3 | 43 | inactive
SOCS1 (suppressor of cytokine signaling 1) | 1 | 0.563 | 93.1 | 0.232 | 97.9 | inactive
SOCS1 (suppressor of cytokine signaling 1) | 2 | -1.55 | 51 | -2.44 | 108 | inactive
SOCS1 (suppressor of cytokine signaling 1) | 3 | -1.07 | 60.6 | -0.451 | 76.3 | inactive
HNRNPA1P35 (heterogeneous nuclear ribonucleoprotein A1 pseudogene 35) | 1 | -0.577 | 70.4 | -0.443 | 88.4 | inactive
HNRNPA1P35 (heterogeneous nuclear ribonucleoprotein A1 pseudogene 35) | 2 | -0.537 | 71.2 | -1.27 | 111 | inactive
HNRNPA1P35 (heterogeneous nuclear ribonucleoprotein A1 pseudogene 35) | 3 | 2.42 | 130 | 2.69 | 71.5 | inactive
CACNB2 (calcium voltage-gated channel auxiliary subunit beta 2) | 1 | 0.21 | 86.1 | 0.0766 | 94.3 | inactive
CACNB2 (calcium voltage-gated channel auxiliary subunit beta 2) | 2 | -1.2 | 58 | -0.922 | 82.7 | inactive
CACNB2 (calcium voltage-gated channel auxiliary subunit beta 2) | 3 | 0.774 | 97.3 | -0.034 | 110 | inactive
TAF4B (TATA-box binding protein associated factor 4b) | 1 | -0.82 | 65.6 | -0.86 | 91.9 | inactive
TAF4B (TATA-box binding protein associated factor 4b) | 2 | -0.703 | 67.9 | 2.38 | 40.5 | inactive
TAF4B (TATA-box binding protein associated factor 4b) | 3 | 0.726 | 96.3 | 1.24 | 77.7 | inactive
MSGN1 (mesogenin 1) | 1 | -0.368 | 74.6 | -0.056 | 84.6 | inactive
MSGN1 (mesogenin 1) | 2 | 0.213 | 86.1 | -0.565 | 112 | inactive
MSGN1 (mesogenin 1) | 3 | -0.0936 | 80 | -0.501 | 102 | inactive
PSMD2 (proteasome 26S subunit ubiquitin receptor, non-ATPase 2) | 1 | 0.467 | 91.2 | 4.78 | 28.9 | inactive
PSMD2 (proteasome 26S subunit ubiquitin receptor, non-ATPase 2) | 2 | -0.784 | 66.3 | 3.06 | 33.1 | inactive
PSMD2 (proteasome 26S subunit ubiquitin receptor, non-ATPase 2) | 3 | -2.05 | 41.1 | 0.646 | 38.7 | inactive
TPH2 (tryptophan hydroxylase 2) | 1 | 0.071 | 83.3 | 1.51 | 62.5 | inactive
TPH2 (tryptophan hydroxylase 2) | 2 | -0.482 | 72.3 | -0.283 | 87.1 | inactive
TPH2 (tryptophan hydroxylase 2) | 3 | 3.4 | 149 | 2.92 | 77.4 | active
GBP5 (guanylate binding protein 5) | 1 | -2.32 | 35.7 | -1.89 | 65.7 | inactive
GBP5 (guanylate binding protein 5) | 2 | 1.15 | 105 | 1.68 | 75.3 | inactive
GBP5 (guanylate binding protein 5) | 3 | -0.889 | 64.2 | -0.712 | 86.5 | inactive
COL4A6 (collagen type IV alpha 6 chain) | 1 | -0.928 | 63.4 | -0.233 | 75.4 | inactive
COL4A6 (collagen type IV alpha 6 chain) | 2 | -0.0447 | 81 | 0.135 | 87.3 | inactive
COL4A6 (collagen type IV alpha 6 chain) | 3 | -0.582 | 70.3 | -0.588 | 91.7 | inactive
PRDM7 (PR/SET domain 7) | 1 | 1.9 | 120 | 1.76 | 84.1 | inactive
PRDM7 (PR/SET domain 7) | 2 | 0.868 | 99.2 | 0.608 | 94.4 | inactive
PRDM7 (PR/SET domain 7) | 3 | -0.46 | 72.7 | -0.284 | 87.6 | inactive

Entries above whose gene name starts with C or c:
Gene | siRNA no. | total luciferase, z-score | total luciferase, % of control | luciferase per cell, z-score | viable cells, % of control | Call
CACNB2 (calcium voltage-gated channel auxiliary subunit beta 2) | 1 | 0.21 | 86.1 | 0.0766 | 94.3 | inactive
CACNB2 (calcium voltage-gated channel auxiliary subunit beta 2) | 2 | -1.2 | 58 | -0.922 | 82.7 | inactive
CACNB2 (calcium voltage-gated channel auxiliary subunit beta 2) | 3 | 0.774 | 97.3 | -0.034 | 110 | inactive
COL4A6 (collagen type IV alpha 6 chain) | 1 | -0.928 | 63.4 | -0.233 | 75.4 | inactive
COL4A6 (collagen type IV alpha 6 chain) | 2 | -0.0447 | 81 | 0.135 | 87.3 | inactive
COL4A6 (collagen type IV alpha 6 chain) | 3 | -0.582 | 70.3 | -0.588 | 91.7 | inactive

Additional entries:
Gene | siRNA no. | total luciferase, z-score | total luciferase, % of control | luciferase per cell, z-score | viable cells, % of control | Call
HOXC12 (homeobox C12) | 1 | -0.37 | 74.5 | -0.27 | 89.4 | inactive
HOXC12 (homeobox C12) | 2 | 1.74 | 116 | 1.59 | 85.6 | inactive
HOXC12 (homeobox C12) | 3 | 0.935 | 100 | 1.5 | 75.7 | inactive
PMP22 (peripheral myelin protein 22) | 1 | 3.08 | 143 | 3.05 | 71.7 | active
PMP22 (peripheral myelin protein 22) | 2 | 2.05 | 123 | 1.94 | 82.2 | inactive
PMP22 (peripheral myelin protein 22) | 3 | -0.831 | 65.4 | -1.03 | 95.9 | inactive
MRPL40 (mitochondrial ribosomal protein L40) | 1 | -1.02 | 61.7 | -0.928 | 88 | inactive
MRPL40 (mitochondrial ribosomal protein L40) | 2 | -1.84 | 45.3 | -1.65 | 78.2 | inactive
MRPL40 (mitochondrial ribosomal protein L40) | 3 | 0.747 | 96.7 | 1.02 | 82.7 | inactive
HLA-DRB1 (major histocompatibility complex, class II, DR beta 1) | 1 | -0.985 | 62.3 | -0.486 | 79.1 | inactive
HLA-DRB1 (major histocompatibility complex, class II, DR beta 1) | 2 | -0.711 | 67.7 | -0.332 | 82.6 | inactive
HLA-DRB1 (major histocompatibility complex, class II, DR beta 1) | 3 | 4.21 | 166 | 2.49 | 96.1 | active
FMR1NB (FMR1 neighbor) | 1 | 0.516 | 92.1 | 0.285 | 95.5 | inactive
FMR1NB (FMR1 neighbor) | 2 | -2.91 | 23.9 | -4.09 | 78.6 | inactive
FMR1NB (FMR1 neighbor) | 3 | 2.37 | 129 | 2.53 | 74.1 | inactive
FAM90A1 (family with sequence similarity 90 member A1) | 1 | -0.379 | 74.3 | -0.279 | 89.4 | inactive
FAM90A1 (family with sequence similarity 90 member A1) | 2 | 0.663 | 95.1 | 0.194 | 101 | inactive
FAM90A1 (family with sequence similarity 90 member A1) | 3 | 1.94 | 121 | 1.53 | 90 | inactive
TRAF2 (TNF receptor associated factor 2) | 1 | 0.194 | 85.7 | -0.332 | 105 | inactive
TRAF2 (TNF receptor associated factor 2) | 2 | 0.916 | 100 | 0.672 | 93.7 | inactive
TRAF2 (TNF receptor associated factor 2) | 3 | -0.952 | 62.9 | -0.767 | 86.1 | inactive
